Consider 3 molecules from patent publication US20190352404A1.

Protein sequences, listed by entry. Tags and fused reporters are not part of them. Lines headed by an entry give the natural chain unless they say otherwise; changes in a name come on top.
UniProt Q9NZQ7: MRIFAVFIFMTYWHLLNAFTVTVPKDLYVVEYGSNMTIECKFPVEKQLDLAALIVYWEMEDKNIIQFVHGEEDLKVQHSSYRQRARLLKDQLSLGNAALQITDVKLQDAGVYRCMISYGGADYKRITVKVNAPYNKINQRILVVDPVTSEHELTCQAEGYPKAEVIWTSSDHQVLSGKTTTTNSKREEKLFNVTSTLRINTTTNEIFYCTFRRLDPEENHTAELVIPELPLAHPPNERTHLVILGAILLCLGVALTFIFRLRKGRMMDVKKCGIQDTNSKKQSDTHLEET

No constants are given. Whether binding was seen depends on the method and setting. Some binding calls cover weakened binding; strength is not graded here.

Assay [1] concerns the target hPD-L1-Fc (human) (UniProt Q9NZQ7). Briefly: BLI. In general terms: Biolayer interferometry detects binding as a change in optical thickness at a sensor tip.
The target is the same in assay [2]. In words: BLI (FIG. 8).
Assay [3] shares this target. In words: BLI (ForteBio Octet), hPD-L1-Fc immobilised on AHC sensor, m7 in solution at two concentrations not printed on the sheet.
For assay [4] the target is unchanged. Briefly: BLI, hPD-L1-Fc on AHC sensor, chimera at high and low concentrations.
Assay [5] has the same target. Briefly: BLI, hPD-L1-Fc on AHC sensor.

B1: chimeric sdAb m7 (VHH, not shown: small tags and cut ends)
VHH: QVQLQESGGGSVQAGGSLRLSCAASRYTASSNCMAWFRQAPGKEREGVATIYNGGGSTAYADSVKGRFTISQDNAKNTVYLQMNSLKPEDTAMYYCGAGSPRFCASDSFEDPTCTLVTSSGAFQYWGQGTQVTVSS
As for B1, the binding result with hPD-L1-Fc (human) [1], with hPD-L1-Fc (human) [2], with hPD-L1-Fc (human) [3] and with hPD-L1-Fc (human) [4] was “binds” throughout.

B2: KN035 sdAb mutant 1 (VHH, not shown: small tags and cut ends)
VHH: QVQLQESGGGSVQAGGSLRLSCAASGKMSSRRCMGWFRQAPGKERVGVAAIDSDGTTKYADSMKGRFTISKDNAKNTLDLQMNSLKPEDTAMYYCVADSFEDPTCTLVTSSGAFQYRGQGTQVTVSS
As to B2, the binding entry with hPD-L1-Fc (human) [5] is listed as “binds”.

B3: KN035 sdAb mutant 2 (VHH, not shown: small tags and cut ends)
VHH: QVQLQESGGGSVQAGGSLRLSCAASGKMSSRRCMGWFRQAPGKQRVGVATIDSDGTTRYVDSVKGRFTISKDNAKNTLDLQMNSLKPEDTAMYYCAADSFEDPTCTLVTSSGAFQYRGQGTQVTVSS
For the molecule B3, the binding entry in the assay with hPD-L1-Fc (human) [5] is listed as “binds”.
